From the supplement of paper PMC4604168 (melanoma cell lines)
This is one part of the list. Single values are uncertain, as repeats are few or missing.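 Cells were imaged in 1,536-well plates, and nuclei stained with an antibody against cleaved PARP were counted against all DNA-stained nuclei to give the apoptosis fraction. Screening doses were chosen to leave most cells alive, and resting and induced cleaved-PARP levels differ strongly between cell lines.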

Key:
Experiment in all cases: cleaved PARP positive nuclei fraction relative to DMSO control; melanoma cells; higher = more apoptosis
Details in all cases: library dose: low library concentration; 72 h
501Mel = system: 501Mel
A101D = system: A101D
A2058 = system: A2058
A375 = system: A375
C32 = system: C32
CBRC013 = system: CBRC013 (line from a melanoma biopsy)
CBRC014 = system: CBRC014 (line from a melanoma biopsy)
CBRC016 = system: CBRC016 (line from a melanoma biopsy)
CBRC017 = system: CBRC017 (line from a melanoma biopsy)
CBRC008 = system: CBRC008 (line from a melanoma biopsy)

SMILES | cleaved PARP positive nuclei fraction (501Mel) | cleaved PARP positive nuclei fraction (A101D) | cleaved PARP positive nuclei fraction (A2058) | cleaved PARP positive nuclei fraction (A375) | cleaved PARP positive nuclei fraction (C32) | cleaved PARP positive nuclei fraction (CBRC013) | cleaved PARP positive nuclei fraction (CBRC014) | cleaved PARP positive nuclei fraction (CBRC016) | cleaved PARP positive nuclei fraction (CBRC017) | cleaved PARP positive nuclei fraction (CBRC008)
Cc1cc(N2CCOCC2)cc2[nH]c(-c3c(NC[C@@H](O)c4cccc(Cl)c4)cc[nH]c3=O)nc12 + Cc1cc(SCc2sc(-c3ccc(C(F)(F)F)c(F)c3)nc2C)ccc1OCC(=O)O [GW0742] (first compound 0.2 µM, partner dose 2 µM) | 183% | 67.3% | 24% | 159% | 35% | 114% | 305% | 70.8% | 87.1% | –
CC(C)(C)c1cnc(CSc2cnc(NC(=O)C3CCNCC3)s2)o1 + Cc1cc(SCc2sc(-c3ccc(C(F)(F)F)c(F)c3)nc2C)ccc1OCC(=O)O [GW0742] (first compound 0.01 µM, partner dose 2 µM) | 162% | 82.6% | 134% | 203% | 71.3% | 65.3% | 106% | 97.1% | 107% | –
COc1ccc(-c2ccc3c(N4CCOCC4)nc(N4C[C@@H](C)O[C@@H](C)C4)nc3n2)cc1CO + C/C(O)=C(\C#N)C(=O)Nc1cc(Br)ccc1Br [LFM-A13] (first compound 0.02 µM, partner dose 2 µM) | 53.3% | 185% | 273% | 217% | 296% | 78.8% | 101% | 48.8% | 228% | –
C[As](C)SC[C@H](NC(=O)CC[C@H](N)C(=O)O)C(=O)NCC(=O)O [Darinaparsin] + c1cc(-c2cnn3cc(-c4ccc(OCCN5CCCCC5)cc4)cnc23)ccn1 [Dorsomorphin] (first compound 0.4 µM, partner dose 0.4 µM) | 177% | 119% | 56.2% | 48.4% | 97.3% | 580% | 150% | 44% | 35.7% | –
Cn1cncc1[C@@](N)(c1ccc(Cl)cc1)c1ccc2c(c1)c(-c1cccc(Cl)c1)cc(=O)n2C [tipifarnib] + Cc1cc(SCc2sc(-c3ccc(C(F)(F)F)c(F)c3)nc2C)ccc1OCC(=O)O [GW0742] (first compound 0.01 µM, partner dose 2 µM) | 55.4% | 109% | 81.7% | 302% | 111% | 125% | 93.8% | 89.8% | 152% | –
CN(NC(=O)CC(=O)NN(C)C(=S)c1ccccc1)C(=S)c1ccccc1 + Cc1cc(SCc2sc(-c3ccc(C(F)(F)F)c(F)c3)nc2C)ccc1OCC(=O)O [GW0742] (first compound 0.006 µM, partner dose 2 µM) | 67.8% | 138% | 81.2% | 105% | 84.8% | 50% | 117% | 100% | 87% | –
O=C(O)C(=O)Nc1sc2c(c1C(=O)O)CCNC2 + C/C(O)=C(\C#N)C(=O)Nc1cc(Br)ccc1Br [LFM-A13] (first compound 1.66667 µM, partner dose 2 µM) | 103% | 243% | 644% | 115% | 84.6% | 67.3% | 72.8% | 175% | 68% | –
N#Cc1c(O)c2c(-c3ccc(-c4ccccc4O)cc3)csc2[nH]c1=O + C/C(O)=C(\C#N)C(=O)Nc1cc(Br)ccc1Br [LFM-A13] (first compound 2 µM, partner dose 2 µM) | 120% | 79.4% | 97.1% | 118% | 130% | 64.6% | 110% | 46.7% | 79.3% | –
Cc1cc([N+](=O)[O-])ccc1NS(=O)(=O)c1cc(Cl)ccc1Cl + O=C(Oc1ccc([N+](=O)[O-])cc1)N1CCC(C(O)(c2ccc3c(c2)OCO3)c2ccc3c(c2)OCO3)CC1 [JZL184] (first compound 1 µM, partner dose 1 µM) | 32.7% | 201% | 33% | 116% | 72.8% | 394% | 171% | 758% | 666% | –
O=C(Nc1ccccc1)c1cc([N+](=O)[O-])ccc1Cl + Cc1cc(SCc2sc(-c3ccc(C(F)(F)F)c(F)c3)nc2C)ccc1OCC(=O)O [GW0742] (first compound 2 µM, partner dose 2 µM) | 44.7% | 171% | 153% | 79.9% | 105% | 175% | 226% | 54.4% | 163% | –
C[As](C)SC[C@H](NC(=O)CC[C@H](N)C(=O)O)C(=O)NCC(=O)O [Darinaparsin] + COc1ccc(COc2ccc(Cc3cnc(N)nc3N)cc2OC)cc1 [GW2580] (first compound 0.4 µM, partner dose 1 µM) | 47.7% | 47.3% | 137% | 74.7% | 143% | 240% | 90.5% | 171% | 82.2% | –
Nc1cccc2c1CN(C1CCC(=O)NC1=O)C2=O (stereo unspecified) [lenalidomide] + O=C(Oc1ccc([N+](=O)[O-])cc1)N1CCC(C(O)(c2ccc3c(c2)OCO3)c2ccc3c(c2)OCO3)CC1 [JZL184] (first compound 1 µM, partner dose 1 µM) | 23.6% | 79.4% | 44.7% | 146% | 30.1% | 212% | 87.9% | 53.7% | 57.2% | –
C/C(O)=C(\C#N)C(=O)Nc1cc(Br)ccc1Br + COc1cc(N2CCC(N3CCN(C)CC3)CC2)ccc1Nc1ncc(Cl)c(Nc2ccccc2S(=O)(=O)C(C)C)n1 [NVP-TAE684] (first compound 2 µM, partner dose 0.08 µM) | 166% | 36.9% | 81.1% | 102% | 76.8% | 25.5% | 182% | 47.2% | 153% | –
O=C1NC(=O)/C(=C/c2ccc(-c3ccc(F)cc3O)o2)S1 + O=C(Oc1ccc([N+](=O)[O-])cc1)N1CCC(C(O)(c2ccc3c(c2)OCO3)c2ccc3c(c2)OCO3)CC1 [JZL184] (first compound 1 µM, partner dose 1 µM) | 78.7% | 155% | 88.6% | 67.3% | 120% | 150% | 91.3% | 154% | 132% | –
O=C(CCCCCCC(=O)Nc1ccccc1)NO [vorinostat] + C/C(O)=C(\C#N)C(=O)Nc1cc(Br)ccc1Br [LFM-A13] (first compound 0.08 µM, partner dose 2 µM) | 52.7% | 35.4% | 101% | 110% | 64.7% | 208% | 90.9% | 108% | 192% | –
Cc1cc(N2CCOCC2)cc2[nH]c(-c3c(NC[C@@H](O)c4cccc(Cl)c4)cc[nH]c3=O)nc12 + C/C(O)=C(\C#N)C(=O)Nc1cc(Br)ccc1Br [LFM-A13] (first compound 0.2 µM, partner dose 2 µM) | 32.5% | 117% | 132% | 97.4% | 114% | 85.8% | 110% | 40.6% | 82.1% | –
Cn1c(Nc2ccc(C(F)(F)F)cc2)nc2cc(Oc3ccnc(-c4ncc(C(F)(F)F)[nH]4)c3)ccc21 + Cc1cc(SCc2sc(-c3ccc(C(F)(F)F)c(F)c3)nc2C)ccc1OCC(=O)O [GW0742] (first compound 0.08 µM, partner dose 2 µM) | 277% | 483% | 400% | 204% | 131% | 644% | 93.7% | 106% | 104% | –
CC1(C)NC(=O)N(c2ccc([N+](=O)[O-])c(C(F)(F)F)c2)C1=O [nilutamide] + C/C(O)=C(\C#N)C(=O)Nc1cc(Br)ccc1Br [LFM-A13] (first compound 1 µM, partner dose 2 µM) | 414% | 147% | 68.2% | 60.1% | 74.5% | 265% | 76% | 107% | 92.3% | –
C[C@]1(c2nc3c(C(N)=O)cccc3[nH]2)CCCN1 [Veliparib] + C/C(O)=C(\C#N)C(=O)Nc1cc(Br)ccc1Br [LFM-A13] (first compound 1.4 µM, partner dose 2 µM) | 68.1% | 162% | 52.5% | 90.8% | 98.8% | 89% | 99% | 24.2% | 76.6% | –
Cn1cncc1[C@@](N)(c1ccc(Cl)cc1)c1ccc2c(c1)c(-c1cccc(Cl)c1)cc(=O)n2C [tipifarnib] + C/C(O)=C(\C#N)C(=O)Nc1cc(Br)ccc1Br [LFM-A13] (first compound 0.01 µM, partner dose 2 µM) | 71.7% | 142% | 82.3% | 172% | 15.6% | 249% | 114% | 133% | 86.4% | –
O=C(Oc1ccc([N+](=O)[O-])cc1)N1CCC(C(O)(c2ccc3c(c2)OCO3)c2ccc3c(c2)OCO3)CC1 + Cn1cc(/C=C2\C(=O)Nc3cccnc32)c2ccccc21 [GW441756] (first compound 1 µM, partner dose 0.4 µM) | 37.6% | 123% | 66.6% | 272% | 46.8% | 259% | 78.5% | 118% | 81.7% | –
CN(C)S(=O)(=O)c1ccc2c(c1)/C(=C/c1cc3c([nH]1)CCCC3)C(=O)N2 + Cc1cc(SCc2sc(-c3ccc(C(F)(F)F)c(F)c3)nc2C)ccc1OCC(=O)O [GW0742] (first compound 0.4 µM, partner dose 2 µM) | 50.9% | 188% | 107% | 142% | 130% | 175% | 100% | 87.3% | 107% | –
COc1cc([C@@H]2c3cc4c(cc3[C@@H](O[C@@H]3O[C@@H]5CO[C@@H](C)O[C@H]5[C@H](O)[C@H]3O)[C@H]3COC(=O)[C@H]23)OCO4)cc(OC)c1O [etoposide] + C/C(O)=C(\C#N)C(=O)Nc1cc(Br)ccc1Br [LFM-A13] (first compound 0.02 µM, partner dose 2 µM) | 55.3% | 22% | 137% | – | 204% | – | 108% | 97.2% | 98.1% | 95.5%

Shown in markdown: entries from further up

| SMILES | cleaved PARP positive nuclei fraction (501Mel) | cleaved PARP positive nuclei fraction (A101D) | cleaved PARP positive nuclei fraction (A2058) | cleaved PARP positive nuclei fraction (A375) | cleaved PARP positive nuclei fraction (C32) | cleaved PARP positive nuclei fraction (CBRC013) | cleaved PARP positive nuclei fraction (CBRC014) | cleaved PARP positive nuclei fraction (CBRC016) | cleaved PARP positive nuclei fraction (CBRC017) | cleaved PARP positive nuclei fraction (CBRC008) |
| --- | --- | --- | --- | --- | --- | --- | --- | --- | --- | --- |
| COc1ccc(-c2ccc3c(N4CCOCC4)nc(N4C[C@@H](C)O[C@@H](C)C4)nc3n2)cc1CO + C/C(O)=C(\C#N)C(=O)Nc1cc(Br)ccc1Br [LFM-A13] (first compound 0.02 µM, partner dose 2 µM) | 53.3% | 185% | 273% | 217% | 296% | 78.8% | 101% | 48.8% | 228% | – |
| C[As](C)SC[C@H](NC(=O)CC[C@H](N)C(=O)O)C(=O)NCC(=O)O [Darinaparsin] + c1cc(-c2cnn3cc(-c4ccc(OCCN5CCCCC5)cc4)cnc23)ccn1 [Dorsomorphin] (first compound 0.4 µM, partner dose 0.4 µM) | 177% | 119% | 56.2% | 48.4% | 97.3% | 580% | 150% | 44% | 35.7% | – |
